The values below come from article PMC6901238.

Protein sequences, listed by entry. Tags and fused reporters are not part of them. Lines headed by an entry give the natural chain unless they say otherwise; changes in a name come on top.
UniProt A0A1Y0B6H8: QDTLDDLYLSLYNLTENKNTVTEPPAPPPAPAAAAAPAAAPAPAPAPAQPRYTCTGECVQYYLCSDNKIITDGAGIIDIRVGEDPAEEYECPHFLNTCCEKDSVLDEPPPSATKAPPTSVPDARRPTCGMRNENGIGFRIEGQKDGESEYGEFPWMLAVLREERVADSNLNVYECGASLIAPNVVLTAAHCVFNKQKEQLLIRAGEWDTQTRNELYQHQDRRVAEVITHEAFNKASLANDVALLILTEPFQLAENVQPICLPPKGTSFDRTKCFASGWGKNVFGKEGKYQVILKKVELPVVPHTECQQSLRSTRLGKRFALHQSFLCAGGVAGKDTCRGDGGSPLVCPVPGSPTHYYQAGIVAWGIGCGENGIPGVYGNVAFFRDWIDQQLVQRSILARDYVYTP

These are yes or no findings as the source states them, for the method shown. Binding seen in cells or lysates may run through a third protein. Here binding means that the protein was enriched with, or labelled near, the bait; the list need not be complete. No binding means not detected with the bait.

T1: CLIPA28 (Anopheles gambiae (endogenous in hemolymph))
T1 sequence: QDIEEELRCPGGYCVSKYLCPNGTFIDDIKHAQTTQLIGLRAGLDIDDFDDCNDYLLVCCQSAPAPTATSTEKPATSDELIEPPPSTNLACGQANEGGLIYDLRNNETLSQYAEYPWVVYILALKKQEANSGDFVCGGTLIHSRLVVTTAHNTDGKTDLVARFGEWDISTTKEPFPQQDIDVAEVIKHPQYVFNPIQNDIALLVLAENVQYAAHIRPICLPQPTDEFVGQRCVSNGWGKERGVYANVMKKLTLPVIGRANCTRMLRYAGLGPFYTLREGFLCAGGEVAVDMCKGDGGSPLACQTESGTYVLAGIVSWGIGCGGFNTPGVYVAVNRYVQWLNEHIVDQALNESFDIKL

B1: complement-like protein TEP1 (protein, UniProt Q9GYW4 22-1340)
chain: LLVVGPKFIRANQEYTLVISNFNSQLSKVDLLLKLEGETDNGLSVLNVTKMVDVRRNMNRMINFNMPEELTAGNYKITIDGQRGFSFHKEAELVYLSKSISGLIQVDKPVFKPGDTVNFRVILLDTELKPPARVKSVYVTIRDPQRNVIRKWSTAKLYAGVFESDLQIVPTPMLGVWNISVEVEGEELVSKTFEVKEYVLSTFDVQVMPSVIPLEEHQAVNLTIEANYHFGKPVQGVAKVELYLDDDKLNQKKELTVYGKGQVELRFDNFAMDADQQDVRVKVSFIEQYTNRTVVKQSQITVYRYAYRVELIKESPQFRPGLPFKCALQFTHHDGTPAKGITGKVEVSDVGFETTTTSDNDGLIKLELQPSEGTEQLGINFNAVDGFFFYEDVNKVETVTDAYIKLELKSPIKRNKLMRFMVTCTERMTFFVYYVMSKGNIIDAGFMRPNKQTKYLLQLNATEKMIPKAKILIATVAGRTVVYDYADLDFQELRNNFDLSIDEQEIKPGRQIELSMSGRPGAYVGLAAYDKALLLFNKNHDLFWEDIGQVFDGFHAINENEFDIFHSLGLFARTLDDILFDSANEKTGRNALQSGKPIGKLVSYRTNFQESWLWKNVSIGRSGSRKLIEVVPDTTTSWYLTGFSIDPVYGLGIIKKPIQFTTVQPFYIVENLPYSIKRGEAVVLQFTLFNNLGAEYIADVTLYNVANQTEFVGRPDTDLSYTKSVSVPPKVGVPISFLIKARKLGEMAVRVKASIMLGHETDALEKVIRVMPESLAQPKMDTSFFCFDDYKNQTFPFNLDINKKADNGSKKIEFRLNPNLLTMVIKNLDNLLAVPTGCGEQNMVKFVPNILVLDYLYATGSKEQHLIDKATNLLRQGYQNQMRYRQTDGSFGVWEKSGSSVFLTAFVATSMQTASKYMNDIDAAMVEKALDWLASKQHSSGRFDETGKVWHKDMQGGLRNGVALTSYVLTALLENDIAKVKHAVVIQNGMNYLSNQLAFINNPYDLSIATYAMMLNGHTMKKEALDKLIDMSISDNNKKERYWGTTNQIETTAYALLSFVMAEKYLDGIPVMNWLVNQRYVTGSFPRTQDTFVGLKALTKLAEKISPSRNDYTVQLKYKKNTKYFNINSEQIDVQNFLEIPEDTKKLEINVGGIGFGLLEVIYQFDLNLVNFEHRFKLDLEKQNTGSDYELRLRVCANYIPELTDSQSNMALIEVTLPSGYVVDRNPISEQTTVNPIQNMEIRYGGTSVVLYYYKMGTERNCFTVTAYRRFKVALKRPAYVVVYDYYNTNLNAIKVYEVDKQNVCEICEEEDCPAECKK
B2: serine protease inhibitor 2 (SRPN2) (protein, UniProt Q7QIJ8 22-409)
chain: QQDVHGPFQGQRQNEFDLMFVKEIFKNHNSNVVLSPFSVKILLTLIYEASDTSFGNAVSNTKRELSSVIQNDNIDHTRSYYKQLLESAQQDNKDYDLNIATNFFVDDFIEVINKYQQIANTHYHAMLEKVSYSNPTQTAATINNWVSEHTNGRLREIVTPDSLEGAVITLVNVIYFKGLWTYPFPEVANNVKPFYGTRGKPTNAQYMEQNGQFYYDNSADLGAQILRLPYRGNKLAMYFILPNPDNTVNQVLDRINSASLHQALWYMEENEVNVTLPKFKFDFSEQLNEPLQQVGIREIFSQNASLPLLARGRGARDEVRVSRIFQKAGITINELGSEAYAATEIQLVNKFGGDGVQIFNANRPFIFFIEDETLGTMLFAGKIENPVF
B3: CLIPB14 (protein, UniProt Q9NAS8 25-375)
chain: QEHKPCTTPNGTAGRCVRVRECGYVLDLLRKDLFAHSDTVHLEGLQCGTRPDGGALVCCPAFVNEPNCGPSVFGVRIIGGNDTELGEFPWMALLRFQARNRKIHGNCGASLVSKRFVLSAAHCFTAAKSKGWKIHSVRVAEWNFMNHRGSKDCKQVKGYDVPICRKDYDVARFVQHPEYRVNAGVHVNDIVLIELAADVEYNVFVAPICLPVSNDTAQLPWGSSDDPEIEYTAAGWGSTESGKESTGMSYQLKQINLRAFNKERCKKLFQVPSGVGVGLGHICAGGIRDEDTCHGDSGGPLMEAVGGVWYLAGITSFGWPRCGRDGVPGVYTNISHYMGWLEREMFRGILA
B4: SPCLIP1 (protein, UniProt A0A1S4HE51 40-416)
chain: NFPVGKFRRCNNNKGICVSREQCLNGQINTVGHTQIEPRLLNDDDIDECDVYGMQCCNLPSTNVPADSDEEEQEEEEKEKKGGTVTTTTTEEPDDPDWSRQCGQRTDVTERADQDGETNRFEFPWSVALFSKAQFFGKVRKEFLCGGTLIDDYLVLTAARCVNQKDRNTLVVQLGRWNLDAGKESRMQEIAVEELIIHRGYVLSSHLHNVALLVLANGAQLGRAANRVCLPDHSVQFGPDTLCYVVGWSNSPSPNTSNRQLKLRSMVAPVQECTATIRRSTGAWDFRLLSENICTTYLDDTVPCERAPGSGFVCESPTLPGQYFLVGIASYAVRQCHKYRAHDVFVHVPDYIEWVDGHVVNQSRQTSFYRPDPISFD
B5: CLIPA8 (protein, UniProt A0A1S4H5S2 26-363)
chain: QNDGSDELQECPGGFCSPKYLCPNGTYNEANAQNQEIIMLRFGEEDVCQDYMQVCCSNATSMRYELVTNNEPVEYGCGISNPGGLIYQVEGNRTYAQYGEFPWVVAILEAFYSSNEQQFTYVGGGTLIHPRFVVTAAHIFNKTENLVASFGEWDMNRDENVYPKQNIDIDRTIIVHPEYNSVGLLNDIALAQLKQNVVYDKHIRPICLPNPTDRFDDQLCISTGWGIEALTSAYANVLKRVDLPVIARASCKKLFAETRLGPFFRLHKSVLCAGGEEGADMCDGDGGSGLACPNESGAYVLAGIVSWGLSCHQQNVPGAYVNVARFVTWINATIEGIL
B6: CLIPB4 (protein, UniProt Q7PEV7 25-360)
chain: LELGQDCVNPVGEAGKCVLFRECQPLVDIYNKPVNTPDDTQFLTESRCGLYERKTLVCCAGVRSKGKTSLPESPNCGVQLTDRVIGGQPTKIDEFPWTALIEYEKPNGRFGFHCGGSVINERYILTAAHCITSIPRGWKVHRVRLGEWDLSSTTDQEDDFYADAPIDLDIEKIIVHPGYNLQDKSHHNDIALIRFNREINYSSTISAICLPLSNSLRNRKHAGLSSYAAGWGKTETASASQKKLKVELTVVDVKDCSPAYQRNGISLDSTQMCAGGIRGKDTCSGDSGGPLMRQMSGSWYLIGVVSFGPQKCGAPGVPGVYTNVAEYVDWIKDNIY
B7: CLIPB8 (protein, UniProt Q8MZM7 25-405)
chain: APMDTDDRPVWDSIRLCDIPNEPNPGQCMLPAECVAYGKINDVSSLSSIERFSFIKQIQCNGSDTVPYVCCPRDSDAYREPYVNETMVPKNRVASRIAFDADSCGIQSYVAKIRGGQLAEIDEFPWMAMLLYERDNNALTQGCGGALISRTYVITAAHCVTGKNFQQTKGRLKFVRLREYNIHTNPDCVYENDLKDCSDDMIDLVPQAVIPHPEYDSESSNQQHDIALIRIEQTPPFTDFLRSICLPEQNFESSATPGKKLSVSGWGRTDIFKDNLGPDVLSPIKLKLSLPYVEREKCSKTFRPWSFALGPGQMCAGGERAKDTCAGDSGSPLMSYDMKRAIWYITGIVSLGVRGCGVEGLPGVYTNVHHYLPWIKMYTGA
B8: CLIPB9 (protein, UniProt F5HKX0 27-401)
chain: QQQQCTTPTRLRGRCISIYECDSILDYFKQRILTWEEREFLRKSQCTGATSGRQPFVCCPGNGSKPVVAPATTVPAGTASTTPAGPAATAPSGDAALADQLVGGLLPNPKKNECGVSIGMRIYGGQNADIDEFPWLALLQYENRKGERKYSCGGSLINRRYVLTAAHCVIGEVERKEGKLVSVRLGEYNTKTEIDCVTEEQEEICADPPIDAGIESVIVHPGYQDMAHADDIALLRLAQSIEYTSFVQPVCLPLTDFRASKTGEVNFVTGFGRTLQESRSAVKQKLGIKVYDHARCQEKYATKNSSITTNQLCAGGEYAKDSCHGDSGGPLMKLQKVWYLEGIVSYGNRCGLEDWPGVYTHVPAYMAWVRSNIKE

The assay deals with T1, CLIPA28 (Anopheles gambiae (endogenous in hemolymph)). Put plainly: affinity purification with mass spectrometry; endogenous CLIPA28 precipitated with 4 ug purified CLIPA28 antibody cross-linked to beads (Pierce crosslink Magnetic IP/co-IP kit); cell-free hemolymph of approximately 900 female mosquitoes 48 hrs after spraying with B. bassiana conidia; overnight at 4 C; eluted proteins identified by mass spectrometry.
CLIPD1: the binding result is “binds”.

On to CLIPA2, for which the binding entry is “binds”.

In the case of CLIPB5, the binding result is “binds”.

Regarding CLIPB17, the binding result is “no binding”.

On to CLIPA14 (from UniProt A0A1Y0B6H8), for which the binding entry is on record as “binds”.

Take CLIPB13: the binding result is reported as “binds”.

B1: the binding entry is reported as “binds”.

Take B2: the binding entry is “binds”.

For B3, the binding entry was “no binding”.

With B4, the binding result is on record as “no binding”.

Turning to B5, the binding entry was “no binding”.

With B6, the binding entry is recorded as “binds”.

For B7, the binding result is listed as “binds”.

Take B8: the binding result was “no binding”.
